PubChem BioAssay AID504784, Drosophila RNAi Screening Center | 2011
The screen tested about 17,000 reagents; below is an unselected part of those that have a named target and a result. 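Each column is one replicate's B-score; the combined score over replicates was not deposited, so single values may mislead.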 The numbers tell different reagents against one gene apart. A plus sign joins genes that one reagent is predicted to hit. Further read-outs or replicates are left out here. No sequences are given here.

- Purpose: 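Genome-wide knock-down for genes giving too much or too little stored lipid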 (primary screen)
- Cell system: Drosophila Kc167 embryonic cells
- Knock-down reagent: long dsRNA against Drosophila genes, about 250 ng dsRNA per well
- Timing: 4 days
- Conditions: cells fed 400 µM oleic acid bound to BSA
- Measurement: 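Cells imaged and segmented; ratio of lipid droplet area to nuclear area, log-transformed, then normalised as a B-score over the screen; higher means more stored lipid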
- Direction: droplet/nuclear area B-score: higher = more stored lipid (overstorage)

predicted target | dsRNA no. | droplet/nuclear area B-score, replicate 1 | droplet/nuclear area B-score, replicate 2
CG31808 | 1 | -0.778 | -0.532
trn | 1 | 0.154 | -0.104
AttD | 1 | -0.437 | 0.0293
Cpr | 1 | 0.809 | 0.407
CG31910 + snoRNA:Me28S-G2743 (retired record) | 1 | -0.303 | -2.13
CG13481 | 1 | 1.28 | -0.0521
CG9616 | 1 | -1.69 | 0.315
Hsp60B | 1 | -0.139 | -0.244
CG7025 | 1 | -0.036 | -2.66
CG32074 | 1 | 0.491 | 1.55
CG5348 | 1 | -1.02 | 0.27
Scgalpha | 1 | -0.822 | 0.546
UQCR-Q | 1 | 7.38 | 5.11
drpr | 1 | -0.0275 | -0.17
drpr | 2 | 0.834 | 0.527
CG30485 | 1 | -0.134 | -0.139
Leash | 1 | -1.01 | -0.444
Ccn | 1 | -2.55 | 0.0724
Ccn | 2 | 0.416 | 1.49
Ccn | 3 | -0.263 | -0.972
Ccn | 4 | -0.846 | -0.00918
Gr43a | 1 | 0.0225 | 0.00213
CG7465 | 1 | 0.844 | 1.39
CG7465 | 2 | -0.587 | -0.883
Ir7b | 1 | -1.92 | -1.12
CG34330 | 1 | 0.111 | -0.03
CG14395 | 1 | 0.325 | 0.466
CG13293 | 1 | 0.743 | -0.156
abo | 1 | 0.56 | -0.341
rump | 1 | -0.0627 | 8.42
Ir68b | 1 | 1.22 | 0.304
CG16719 | 1 | -1.17 | -0.213
gb | 1 | -0.756 | 0.00339
CG32241 | 1 | 0.109 | -0.844
CG32241 | 2 | -0.472 | -0.403
CG11596 | 1 | 0.178 | -0.681
Inx7 + cm | 1 | 0.614 | 0.0254
Hph | 1 | -1.24 | 1.19
Hph | 2 | -0.732 | 1.05
D2hgdh | 1 | -0.324 | –
Ir75c | 1 | 0.441 | 3.02
Ski6 | 1 | 0.00647 | 0.0427
CG10265 | 1 | -0.281 | -0.00512
CG10265 | 2 | -0.773 | 0.145
wol | 1 | -0.245 | 0.622
tamo | 1 | 1.15 | 0.186
CG14965 | 1 | -1.12 | -1.08
CG32371 | 1 | 1.58 | 0.597
CG13245 | 1 | 0.105 | 0.27
wupA | 1 | -0.333 | -0.0941
wupA | 2 | 0 | 1.08
CG10943 | 1 | -1.1 | 0.354
Cp7Fb | 1 | -2.18 | -0.543
CG17211 | 1 | -0.377 | 0.64
lectin-28C | 1 | 0.0285 | 0.85
Arl1 | 1 | -2.32 | 0.52
CG6282 | 1 | -0.931 | -0.62
RpL27A | 1 | 2.37 | 3.47
meso18E | 1 | 1.6 | 0.0831
CG2767 | 1 | -1.63 | 0.746
CG13836 (retired record) | 1 | -1.34 | -1.83
Rubicon | 1 | 0.203 | 0.0929
Miro | 1 | -0.507 | -1.38

The list goes on, starting with the last 2 of the part before.
predicted target | dsRNA no. | droplet/nuclear area B-score, replicate 1 | droplet/nuclear area B-score, replicate 2
Rubicon | 1 | 0.203 | 0.0929
Miro | 1 | -0.507 | -1.38
CG4594 | 1 | -0.0158 | 0.0891
Daxx | 1 | 1.17 | 0.625
Pak3 | 1 | 0.0913 | 0.495
CG31321 | 1 | 0.662 | 2.92
CG14551 | 1 | -0.0117 | -1.39
CG15330 | 1 | -0.0226 | -0.654
Hnf4 | 1 | 1.12 | 2.85
MESR4 | 1 | 0.00856 | 0.181
CG32369 | 1 | -1.83 | -1.14
CG32369 | 2 | -1.76 | -0.674
CG10383 | 1 | -0.907 | -1.26
Dnz1 | 1 | -0.739 | -0.736
Claspin | 1 | -0.425 | -1.22
CG5515 | 1 | -0.871 | -3.45
CG7183 | 1 | -0.711 | -0.854
Cyp316a1 | 1 | 0.363 | -0.346
bonsai | 1 | -0.0421 | 0.503
Gnpat | 1 | -0.00463 | 2.15
Rph | 1 | 0.215 | -0.332
DnaJ-1 | 1 | -0.544 | 0.211
Vps35 | 1 | -0.529 | 0.339
orion | 1 | 0.217 | -2.03
orion | 2 | -0.232 | 0.408
Srg3 | 1 | -0.169 | 0.012
Srg3 | 2 | -0.0108 | 0.193
Acbp5 | 1 | 0.794 | 1.91
shrb | 1 | 0.105 | -0.868
CG4607 | 1 | -1.07 | 0.568
robl62A | 1 | -1.12 | -0.212
Sulf1 | 1 | 0.87 | 0.59
Uro | 1 | 1.65 | -0.552
CG5781 | 1 | 1.04 | 1.13
Rrp45 | 1 | -0.688 | -0.227
dar1 | 1 | -0.676 | -0.0407
CG17361 | 1 | -1.55 | -2.96
Sym | 1 | 0.957 | 0.0911
CG10301 | 1 | -0.0929 | -0.0197
CG31626 + CG8677 | 1 | -1.87 | 0.18
DppIII | 1 | -0.464 | -1.77
spt4 | 1 | -0.595 | -0.523
CG18809 | 1 | -0.99 | -2.3
CG3862 | 1 | 3.82 | 0.227
